Results taken from publication PMC11658772.
Results are given in words; binding and its absence hold for the method and conditions named. In cells and extracts the contact can be indirect. Some binding calls cover weakened binding; strength is not graded here. Tags and fused reporters may be left off the sequences shown.

What was measured:
[1] = target: T1, MSL1^3S-3xHA (K3S R4S K6S) (Drosophila melanogaster) (UniProt P50535); assay: co-IP; Drosophila S2 cells co-transfected with MSL1*-3xHA and MSL2-3xFLAG, 48 hr; extract made with 420 mM NaCl; immunoprecipitation with anti-FLAG, anti-HA or mouse IgG (negative control) magnetic beads in buffer-150 (20 mM Tris-HCl pH 7.4, 150 mM NaCl, 10 mM MgCl2, 0.1% NP-40), overnight at 4 °C; immunoblot with anti-FLAG-HRP
T1 sequence: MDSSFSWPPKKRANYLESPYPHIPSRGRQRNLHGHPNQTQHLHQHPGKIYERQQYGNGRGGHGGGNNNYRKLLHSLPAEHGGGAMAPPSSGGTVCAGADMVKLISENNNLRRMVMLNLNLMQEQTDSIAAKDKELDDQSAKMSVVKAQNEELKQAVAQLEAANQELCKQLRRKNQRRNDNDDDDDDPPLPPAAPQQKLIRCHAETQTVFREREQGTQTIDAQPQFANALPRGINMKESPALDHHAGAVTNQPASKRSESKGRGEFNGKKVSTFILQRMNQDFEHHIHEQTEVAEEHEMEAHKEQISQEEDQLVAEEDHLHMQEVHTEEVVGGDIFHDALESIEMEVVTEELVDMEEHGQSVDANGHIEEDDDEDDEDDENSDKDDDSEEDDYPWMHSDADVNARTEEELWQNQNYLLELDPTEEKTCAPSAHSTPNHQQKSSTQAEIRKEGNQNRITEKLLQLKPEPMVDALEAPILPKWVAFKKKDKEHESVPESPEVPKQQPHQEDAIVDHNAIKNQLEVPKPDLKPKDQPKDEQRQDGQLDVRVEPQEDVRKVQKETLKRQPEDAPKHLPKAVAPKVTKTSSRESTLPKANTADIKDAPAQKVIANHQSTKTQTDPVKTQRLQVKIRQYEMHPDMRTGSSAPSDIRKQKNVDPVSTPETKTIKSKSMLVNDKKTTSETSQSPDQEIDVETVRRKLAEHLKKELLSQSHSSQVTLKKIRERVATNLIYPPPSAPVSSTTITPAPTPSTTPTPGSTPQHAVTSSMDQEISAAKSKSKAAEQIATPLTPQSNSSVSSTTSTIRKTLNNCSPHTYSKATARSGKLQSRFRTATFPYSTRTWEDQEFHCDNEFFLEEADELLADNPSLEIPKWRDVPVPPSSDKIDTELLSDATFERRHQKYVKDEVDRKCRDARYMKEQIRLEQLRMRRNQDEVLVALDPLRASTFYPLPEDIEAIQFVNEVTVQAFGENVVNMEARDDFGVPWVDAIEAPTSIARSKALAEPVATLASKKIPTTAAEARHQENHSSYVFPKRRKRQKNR

[2] = target: T2, MSL1^2A-3xHA (F5A W7A) (Drosophila melanogaster) (UniProt P50535); assay: as above
T2 sequence: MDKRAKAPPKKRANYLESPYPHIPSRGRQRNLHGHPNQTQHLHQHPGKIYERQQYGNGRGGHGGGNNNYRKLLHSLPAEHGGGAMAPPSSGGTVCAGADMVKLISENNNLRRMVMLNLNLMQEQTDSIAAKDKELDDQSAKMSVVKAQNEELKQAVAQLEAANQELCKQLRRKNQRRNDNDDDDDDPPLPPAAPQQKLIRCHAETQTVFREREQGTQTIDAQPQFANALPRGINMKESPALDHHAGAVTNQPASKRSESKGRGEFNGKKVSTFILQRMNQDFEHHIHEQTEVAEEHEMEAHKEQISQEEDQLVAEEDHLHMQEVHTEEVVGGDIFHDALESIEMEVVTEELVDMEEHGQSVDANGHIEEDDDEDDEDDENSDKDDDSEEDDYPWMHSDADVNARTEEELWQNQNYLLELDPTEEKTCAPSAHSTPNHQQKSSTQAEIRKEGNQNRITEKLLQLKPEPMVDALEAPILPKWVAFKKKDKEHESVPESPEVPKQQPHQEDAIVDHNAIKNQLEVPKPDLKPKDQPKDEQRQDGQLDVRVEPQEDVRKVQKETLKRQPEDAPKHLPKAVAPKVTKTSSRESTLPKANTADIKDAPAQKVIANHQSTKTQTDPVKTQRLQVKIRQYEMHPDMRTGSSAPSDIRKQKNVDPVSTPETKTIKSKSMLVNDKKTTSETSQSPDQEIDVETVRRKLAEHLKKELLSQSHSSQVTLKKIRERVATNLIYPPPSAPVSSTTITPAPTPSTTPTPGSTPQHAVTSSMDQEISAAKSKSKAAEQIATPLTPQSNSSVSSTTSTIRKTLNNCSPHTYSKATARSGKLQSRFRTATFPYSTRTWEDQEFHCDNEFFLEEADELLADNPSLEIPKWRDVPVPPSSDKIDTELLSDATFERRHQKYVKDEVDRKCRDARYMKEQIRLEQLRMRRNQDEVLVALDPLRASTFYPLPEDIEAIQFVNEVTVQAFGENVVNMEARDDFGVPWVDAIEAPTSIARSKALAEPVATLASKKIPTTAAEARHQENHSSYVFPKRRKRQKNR

B1: MSL2-3xFLAG (protein, UniProt P50534 1-773)
chain: MAQTAYLKVTRIAMRSASNLSKRRVEELNSGLGELRQLLSCVVCCQLLVDPYSPKGKRCQHNVCRLCLRGKKHLFPSCTQCEGCSDFKTYEENRMMAAQLLCYKTLCVHLLHSALFGELAGMRPQVARELVPRIKLPPKTTQEFIREGSNISDTFDIFLPQPDLPFLKDMPTSLPAETPPTSAVTTPELPYDHHLNISDIEAEAAATAEQGHFSPLPLLPTGSRMGMLSHAGQIVIATESSESGFMDQAWTDQVDLSGTVSVSKYTNSGNNFAVSYVMPTSATTKFDPQELQIGQVVQMADSTQLAVLAAVEETVETSTQLTVLSTTVEETVETSTQLEVLTSAEEPNEISDQLANLQVEESDEALVEETVEEAEGTSIPSEVVAEHMEEDQHLDVHTSQSPTQTEMEEAVEEHVATKTQLGHVQTELQDAESLQKDFEDAKAAAEEAKEKEKDLHAISAELQKEDSDEPTLKRKRTRTLKASQAAKIEPVPSEVKTKVQSGKGALRRIRGKDKEEKVKPPKPKCRCGISGSSNTLTTCRNSRCPCYKSYNSCAGCHCVCCKNPHKEDYVESDEDDDLEDFEMPKDVPEPMTQSEEPVVAEPRQEENSMAPPDSSAPISLVPLNNLQQSQHPLVLVQNEKGEYQGFNIFQGSKPLDPVTVGFTIRVQLQHTDGFGSLPQYAYIMPTIDPPNPPAPSLSPPPPPAPDREVIEPPAKKFRTSRTRRGRANFSALDTVDELVSGGSRSNSAAGDRSSATDNAHSLFEEIMSGSDDL
B1 was tested, and the binding [1] was “binds” and the binding [2] was “binds”.
